Laboratory results from US10183000B1, “2, 4-dinitroanilino-benzoic acid: novel insulinotropic agent for the treatment of diabetes” (priority 2017, dated 2019).

Assay: Body weight of STZ-induced diabetic rats during eight weeks of treatment
Type: in vivo, Wistar rats
Conditions: 100 mg/kg

O=C(O)c1ccccc1Nc1ccc([N+](=O)[O-])cc1[N+](=O)[O-] [Compound 1, 2,4-Dinitroanilino-benzoic acid]
gain in body mass (in words) (eight weeks of intervention): no gain in body mass was observed | Body weight (STZ-induced diabetic rats, eight weeks, mean ± SE, 06 rats, *P<0.05 vs diabetic group): 160 ± 2.1* g
